From publication PMC11928863 (Computational and Structural Biotechnology Journal, 2025)

Target: T1, CD2068 (Clostridioides difficile, UniProt Q188D7)
T1 sequence (Q188D7 1-541): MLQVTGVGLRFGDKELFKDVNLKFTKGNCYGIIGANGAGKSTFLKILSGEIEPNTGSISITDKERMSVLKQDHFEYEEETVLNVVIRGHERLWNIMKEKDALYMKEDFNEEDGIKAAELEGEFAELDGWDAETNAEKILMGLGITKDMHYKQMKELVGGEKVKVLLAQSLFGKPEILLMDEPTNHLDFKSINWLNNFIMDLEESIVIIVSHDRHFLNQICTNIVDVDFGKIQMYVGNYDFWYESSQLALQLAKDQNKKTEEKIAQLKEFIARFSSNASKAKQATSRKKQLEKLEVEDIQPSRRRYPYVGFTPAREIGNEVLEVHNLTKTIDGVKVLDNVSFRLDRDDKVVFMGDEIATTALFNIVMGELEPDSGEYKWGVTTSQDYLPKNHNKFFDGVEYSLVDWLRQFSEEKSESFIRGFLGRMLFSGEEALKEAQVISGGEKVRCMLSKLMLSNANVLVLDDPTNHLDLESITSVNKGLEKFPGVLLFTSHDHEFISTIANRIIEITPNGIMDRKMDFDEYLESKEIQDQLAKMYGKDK
Assay: biochemical

**Q.** Which Kd does the source give for CSc1ccc2c(c1)N(CCC1CCCCN1C)c1ccccc1S2 (stereo not shown) [thioridazine] here?
**A.** Its Kd is 14.8 ± 7.6 µM.
